The values that follow come from paper PMC6316800.

Chains of the proteins cited; added tags and fusions are not shown.
UniProt P03496: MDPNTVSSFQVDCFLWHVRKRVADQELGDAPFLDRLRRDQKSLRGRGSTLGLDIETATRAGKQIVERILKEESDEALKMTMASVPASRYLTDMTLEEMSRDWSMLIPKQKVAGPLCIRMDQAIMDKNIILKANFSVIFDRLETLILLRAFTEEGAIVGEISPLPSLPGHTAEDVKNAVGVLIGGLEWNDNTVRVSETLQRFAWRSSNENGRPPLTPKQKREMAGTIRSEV

Results are given in words; binding and its absence hold for the method and conditions named. Binding seen in cells or lysates may run through a third protein. Here binding means that the protein was enriched with, or labelled near, the bait; the list need not be complete.

For the test, the target named is Influenza A virus non-structural protein 1 (NS1), strain A/Puerto Rico/8/1934(H1N1) (Influenza A virus A/Puerto Rico/8/1934(H1N1)) (UniProt P03496). The test can be described thus: affinity purification with mass spectrometry.

B1: Nucleolar protein 16 (protein, UniProt Q9Y3C1 1-178)
chain: MPKAKGKTRRQKFGYSVNRKRLNRNARRKAAPRIECSHIRHAWDHAKSVRQNLAEMGLAVDPNRAVPLRKRKVKAMEVDIEERPKELVRKPYVLNDLEAEASLPEKKGNTLSRDLIDYVRYMVENHGEDYKAMARDEKNYYQDTPKQIRSKINVYKRFYPAEWQDFLDSLQKRKMEVE
B1: the binding result is on record as “binds”.

B2: Nucleolar protein 7 (protein, UniProt Q9UMY1 1-257)
chain: MVQLRPRASRAPASAEAMVDEGQLASEEEEAEHGLLLGQPSSGAAAEPLEEDEEGDDEFDDEAPEELTFASAQAEAREEERRVRETVRRDKTLLKEKRKRREELFIEQKKRKLLPDTILEKLTTASQTNIKKSPGKVKEVNLQKKNEDCEKGNDSKKVKVQKVQSVSQNKSYLAVRLKDQDLRDSRQQAAQAFIHNSLYGPGTNRTTVNKFLSLANKRLPVKRAAVQFLNNAWGIQKKQNAKRFKRRWMVRKMKTKK
With B2, the binding result was “binds”.

B3: Nucleolar protein 6 (protein, UniProt Q9H6R4 1-1146)
chain: MGPAPAGEQLRGATGEPEVMEPALEGTGKEGKKASSRKRTLAEPPAKGLLQPVKLSRAELYKEPTNEELNRLRETEILFHSSLLRLQVEELLKEVRLSEKKKDRIDAFLREVNQRVVRVPSVPETELTDQAWLPAGVRVPLHQVPYAVKGCFRFLPPAQVTVVGSYLLGTCIRPDINVDVALTMPREILQDKDGLNQRYFRKRALYLAHLAHHLAQDPLFGSVCFSYTNGCHLKPSLLLRPRGKDERLVTVRLHPCPPPDFFRPCRLLPTKNNVRSAWYRGQSPAGDGSPEPPTPRYNTWVLQDTVLESHLQLLSTILSSAQGLKDGVALLKVWLRQRELDKGQGGFTGFLVSMLVVFLVSTRKIHTTMSGYQVLRSVLQFLATTDLTVNGISLCLSSDPSLPALADFHQAFSVVFLDSSGHLNLCADVTASTYHQVQHEARLSMMLLDSRADDGFHLLLMTPKPMIRAFDHVLHLRPLSRLQAACHRLKLWPELQDNGGDYVSAALGPLTTLLEQGLGARLNLLAHSRPPVPEWDISQDPPKHKDSGTLTLGLLLRPEGLTSVLELGPEADQPEAAKFRQFWGSRSELRRFQDGAIREAVVWEAASMSQKRLIPHQVVTHLLALHADIPETCVHYVGGPLDALIQGLKETSSTGEEALVAAVRCYDDLSRLLWGLEGLPLTVSAVQGAHPVLRYTEVFPPTPVRPAFSFYETLRERSSLLPRLDKPCPAYVEPMTVVCHLEGSGQWPQDAEAVQRVRAAFQLRLAELLTQQHGLQCRATATHTDVLKDGFVFRIRVAYQREPQILKEVQSPEGMISLRDTAASLRLERDTRQLPLLTSALHGLQQQHPAFSGVARLAKRWVRAQLLGEGFADESLDLVAAALFLHPEPFTPPSSPQVGFLRFLFLVSTFDWKNNPLFVNLNNELTVEEQVEIRSGFLAARAQLPVMVIVTPQDRKNSVWTQDGPSAQILQQLVVLAAEALPMLEKQLMDPRGPGDIRTVFRPPLDIYDVLIRLSPRHIPRHRQAVDSPAASFCRGLLSQPGPSSLMPVLGYDPPQLYLTQLREAFGDLALFFYDQHGGEVIGVLWKPTSFQPQPFKASSTKGRMVMSRGGELVMVPNVEAILEDFAVLGEGLVQTVEARSERWTV
As to B3, the binding result is recorded as “binds”.

B4: Nucleolar protein 58 (protein, UniProt Q9Y2X3 1-529)
chain: MLVLFETSVGYAIFKVLNEKKLQEVDSLWKEFETPEKANKIVKLKHFEKFQDTAEALAAFTALMEGKINKQLKKVLKKIVKEAHEPLAVADAKLGGVIKEKLNLSCIHSPVVNELMRGIRSQMDGLIPGVEPREMAAMCLGLAHSLSRYRLKFSADKVDTMIVQAISLLDDLDKELNNYIMRCREWYGWHFPELGKIISDNLTYCKCLQKVGDRKNYASAKLSELLPEEVEAEVKAAAEISMGTEVSEEDICNILHLCTQVIEISEYRTQLYEYLQNRMMAIAPNVTVMVGELVGARLIAHAGSLLNLAKHAASTVQILGAEKALFRALKSRRDTPKYGLIYHASLVGQTSPKHKGKISRMLAAKTVLAIRYDAFGEDSSSAMGVENRAKLEARLRTLEDRGIRKISGTGKALAKTEKYEHKSEVKTYDPSGDSTLPTCSKKRKIEQVDKEDEITEKKAKKAKIKVKVEEEEEEKVAEEEETSVKKKKKRGKKKHIKEEPLSEEEPCTSTAIASPEKKKKKKKKRENED
With B4, the binding entry is listed as “binds”.

B5: Protein C16orf88 (protein, UniProt Q1ED39 1-458)
chain: MITKTHKVDLGLPEKKKKKKVVKEPETRYSVLNNDDYFADVSPLRATSPSKSVAHGQAPEMPLVKKKKKKKKGVSTLCEEHVEPETTLPARRTEKSPSLRKQVFGHLEFLSGEKKNKKSPLAMSHASGVKTSPDPRQGEEETRVGKKLKKHKKEKKGAQDPTAFSVQDPWFCEAREARDVGDTCSVGKKDEEQAALGQKRKRKSPREHNGKVKKKKKIHQEGDALPGHSKPSRSMESSPRKGSKKKPVKVEAPEYIPISDDPKASAKKKMKSKKKVEQPVIEEPALKRKKKKKRKESGVAGDPWKEETDTDLEVVLEKKGNMDEAHIDQVRRKALQEEIDRESGKTEASETRKWTGTQFGQWDTAGFENEDQKLKFLRLMGGFKNLSPSFSRPASTIARPNMALGKKAADSLQQNLQRDYDRAMSWKYSRGAGLGFSTAPNKIFYIDRNASKSVKLED
For B5, the binding entry is listed as “binds”.

B6: Putative ribosomal RNA methyltransferase NOP2 (protein, UniProt P46087 1-812)
chain: MGRKLDPTKEKRGPGRKARKQKGAETELVRFLPAVSDENSKRLSSRARKRAAKRRLGSVEAPKTNKSPEAKPLPGKLPKGISAGAVQTAGKKGPQSLFNAPRGKKRPAPGSDEEEEEEDSEEDGMVNHGDLWGSEDDADTVDDYGADSNSEDEEEGEALLPIERAARKQKAREAAAGIQWSEEETEDEEEEKEVTPESGPPKVEEADGGLQINVDEEPFVLPPAGEMEQDAQAPDLQRVHKRIQDIVGILRDFGAQREEGRSRSEYLNRLKKDLAIYYSYGDFLLGKLMDLFPLSELVEFLEANEVPRPVTLRTNTLKTRRRDLAQALINRGVNLDPLGKWSKTGLVVYDSSVPIGATPEYLAGHYMLQGASSMLPVMALAPQEHERILDMCCAPGGKTSYMAQLMKNTGVILANDANAERLKSVVGNLHRLGVTNTIISHYDGRQFPKVVGGFDRVLLDAPCSGTGVISKDPAVKTNKDEKDILRCAHLQKELLLSAIDSVNATSKTGGYLVYCTCSITVEENEWVVDYALKKRNVRLVPTGLDFGQEGFTRFRERRFHPSLRSTRRFYPHTHNMDGFFIAKFKKFSNSIPQSQTGNSETATPTNVDLPQVIPKSENSSQPAKKAKGAAKTKQQLQKQQHPKKASFQKLNGISKGADSELSTVPSVTKTQASSSFQDSSQPAGKAEGIREPKVTGKLKQRSPKLQSSKKVAFLRQNAPPKGTDTQTPAVLSPSKTQATLKPKDHHQPLGRAKGVEKQQLPEQPFEKAAFQKQNDTPKGPQPPTVSPIRSSRPPPAKRKKSQSRGNSQLLLS
On to B6, for which the binding entry is given as “binds”.

B7: p21-activated protein kinase-interacting protein 1 (protein, UniProt Q9NWT1 1-392)
chain: MELVAGCYEQVLFGFAVHPEPEACGDHEQWTLVADFTHHAHTASLSAVAVNSRFVVTGSKDETIHIYDMKKKIEHGALVHHSGTITCLKFYGNRHLISGAEDGLICIWDAKKWECLKSIKAHKGQVTFLSIHPSGKLALSVGTDKTLRTWNLVEGRSAFIKNIKQNAHIVEWSPRGEQYVVIIQNKIDIYQLDTASISGTITNEKRISSVKFLSESVLAVAGDEEVIRFFDCDSLVCLCEFKAHENRVKDMFSFEIPEHHVIVSASSDGFIKMWKLKQDKKVPPSLLCEINTNARLTCLGVWLDKVADMKESLPPAAEPSPVSKEQSKIGKKEPGDTVHKEEKRSKPNTKKRGLTGDSKKATKESGLISTKKRKMVEMLEKKRKKKKIKTMQ
With B7, the binding result is “binds”.
